Values from PubChem BioAssay AID652272 (Drosophila RNAi Screening Center, 2013).

- Aim: 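Genome-wide knock-down search for components of Hedgehog signalling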 (primary screen)
- Cells: Drosophila clone 8 (Cl8) cells
- Reagents: long dsRNA against Drosophila genes
- Measured: 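Firefly light from a Hedgehog-responsive ptc promoter reporter and Renilla reference light, both read on a plate reader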
- Reading the numbers: firefly Hh reporter signal: higher = more ptc reporter light; Renilla reference signal: higher = more Renilla control light
- Hit rule: 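Hit when the z-score averaged over two replicates is under -2 or over +3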
- Calls: active = hit: reporter lowered or raised; inactive = not a hit
The deposit covers about 21,000 reagents; shown is a random part of those with a known target gene and a result. Over the whole deposit, 503 (2.4%) are marked active. 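Raw plate light values, not normalised; calls rest on replicate z-scores that were not deposited; hits include reporter decreases as well as increases.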 The numbers tell different reagents against one gene apart. Names joined by + are all predicted targets of the reagent. The record does not give: the amount of reagent, the time to read-out.

{"gene knocked down": "JhI-26 (Juvenile hormone-inducible protein 26)", "reagent": 1, "firefly Hh reporter signal, replicate 1": 1.33e5, "firefly Hh reporter signal, replicate 2": 85130, "Renilla reference signal, replicate 1": 5832, "Renilla reference signal, replicate 2": 3539, "Call": "inactive"}
{"gene knocked down": "isoQC (iso Glutaminyl cyclase)", "reagent": 1, "firefly Hh reporter signal, replicate 1": 79090, "firefly Hh reporter signal, replicate 2": 83617, "Renilla reference signal, replicate 1": 2723, "Renilla reference signal, replicate 2": 2304, "Call": "inactive"}
{"gene knocked down": "snoRNA:U31:54Ec + snoRNA:snR38:54Eb + snoRNA:U27:54Eb + 8 more", "reagent": 1, "firefly Hh reporter signal, replicate 1": 1.13e5, "firefly Hh reporter signal, replicate 2": 65242, "Renilla reference signal, replicate 1": 3232, "Renilla reference signal, replicate 2": 4296, "Call": "inactive"}
{"gene knocked down": "HHEX (Hematopoietically expressed homeobox)", "reagent": 1, "firefly Hh reporter signal, replicate 1": 3.77e5, "firefly Hh reporter signal, replicate 2": 42672, "Renilla reference signal, replicate 1": 25420, "Renilla reference signal, replicate 2": 1911, "Call": "inactive"}
{"gene knocked down": "CG14752", "reagent": 1, "firefly Hh reporter signal, replicate 1": 1.04e5, "firefly Hh reporter signal, replicate 2": 58336, "Renilla reference signal, replicate 1": 2811, "Renilla reference signal, replicate 2": 5312, "Call": "inactive"}
{"gene knocked down": "Dtg (Dpp target gene)", "reagent": 1, "firefly Hh reporter signal, replicate 1": 1.41e5, "firefly Hh reporter signal, replicate 2": 1.21e5, "Renilla reference signal, replicate 1": 5968, "Renilla reference signal, replicate 2": 4512, "Call": "inactive"}
{"gene knocked down": "Snx27 (Sorting nexin 27)", "reagent": 1, "firefly Hh reporter signal, replicate 1": 1.73e5, "firefly Hh reporter signal, replicate 2": 3.17e5, "Renilla reference signal, replicate 1": 6252, "Renilla reference signal, replicate 2": 12013, "Call": "inactive"}
{"gene knocked down": "Snx27 (Sorting nexin 27)", "reagent": 2, "firefly Hh reporter signal, replicate 1": 1.02e5, "firefly Hh reporter signal, replicate 2": 2.19e5, "Renilla reference signal, replicate 1": 3850, "Renilla reference signal, replicate 2": 8232, "Call": "inactive"}
{"gene knocked down": "Snx27 (Sorting nexin 27)", "reagent": 3, "firefly Hh reporter signal, replicate 1": 56658, "firefly Hh reporter signal, replicate 2": 2.17e5, "Renilla reference signal, replicate 1": 2156, "Renilla reference signal, replicate 2": 7559, "Call": "inactive"}
{"gene knocked down": "Ythdc1 (YTH domain containing 1)", "reagent": 1, "firefly Hh reporter signal, replicate 1": 1.28e5, "firefly Hh reporter signal, replicate 2": 1.12e5, "Renilla reference signal, replicate 1": 6252, "Renilla reference signal, replicate 2": 4196, "Call": "inactive"}
{"gene knocked down": "CG4324", "reagent": 1, "firefly Hh reporter signal, replicate 1": 74181, "firefly Hh reporter signal, replicate 2": 67945, "Renilla reference signal, replicate 1": 1783, "Renilla reference signal, replicate 2": 5645, "Call": "inactive"}
{"gene knocked down": "CG13203", "reagent": 1, "firefly Hh reporter signal, replicate 1": 87015, "firefly Hh reporter signal, replicate 2": 62656, "Renilla reference signal, replicate 1": 2134, "Renilla reference signal, replicate 2": 4636, "Call": "inactive"}
{"gene knocked down": "CG10505", "reagent": 1, "firefly Hh reporter signal, replicate 1": 77147, "firefly Hh reporter signal, replicate 2": 60145, "Renilla reference signal, replicate 1": 1899, "Renilla reference signal, replicate 2": 6022, "Call": "inactive"}
{"gene knocked down": "CycB (Cyclin B)", "reagent": 1, "firefly Hh reporter signal, replicate 1": 31632, "firefly Hh reporter signal, replicate 2": 24000, "Renilla reference signal, replicate 1": 1574, "Renilla reference signal, replicate 2": 1216, "Call": "inactive"}
{"gene knocked down": "pasi1 (pasiflora 1)", "reagent": 1, "firefly Hh reporter signal, replicate 1": 7.86e5, "firefly Hh reporter signal, replicate 2": 8.23e5, "firefly Hh reporter signal, replicate 3": 1.76e5, "Renilla reference signal, replicate 1": 42259, "Renilla reference signal, replicate 2": 6225, "Call": "inactive"}
{"gene knocked down": "CG6178", "reagent": 1, "firefly Hh reporter signal, replicate 1": 1.07e5, "firefly Hh reporter signal, replicate 2": 54025, "Renilla reference signal, replicate 1": 4301, "Renilla reference signal, replicate 2": 2225, "Call": "inactive"}
{"gene knocked down": "Amt (Ammonium transporter)", "reagent": 1, "firefly Hh reporter signal, replicate 1": 84080, "firefly Hh reporter signal, replicate 2": 1.00e5, "Renilla reference signal, replicate 1": 3360, "Renilla reference signal, replicate 2": 2976, "Call": "inactive"}
{"gene knocked down": "Dus1 (Dihydrouridine synthase 1)", "reagent": 1, "firefly Hh reporter signal, replicate 1": 1.04e5, "firefly Hh reporter signal, replicate 2": 66028, "Renilla reference signal, replicate 1": 2624, "Renilla reference signal, replicate 2": 1475, "Call": "inactive"}
{"gene knocked down": "VhaPPA1-1 (Vacuolar H[+] ATPase PPA1 subunit 1)", "reagent": 1, "firefly Hh reporter signal, replicate 1": 1.21e5, "firefly Hh reporter signal, replicate 2": 59616, "Renilla reference signal, replicate 1": 4705, "Renilla reference signal, replicate 2": 2400, "Call": "inactive"}
{"gene knocked down": "Bub1 (Bub1 kinase)", "reagent": 1, "firefly Hh reporter signal, replicate 1": 35944, "firefly Hh reporter signal, replicate 2": 1.18e5, "Renilla reference signal, replicate 1": 2480, "Renilla reference signal, replicate 2": 4709, "Call": "inactive"}
{"gene knocked down": "ord (orientation disruptor)", "reagent": 1, "firefly Hh reporter signal, replicate 1": 60375, "firefly Hh reporter signal, replicate 2": 66728, "Renilla reference signal, replicate 1": 636, "Renilla reference signal, replicate 2": 5557, "Call": "inactive"}
